Assay results taken from publication PMC5382584, “In search of tail-anchored protein machinery in plants: reevaluating the role of arsenite transporters” (Scientific Reports, 2017).
No constants are given. Whether binding was seen depends on the method and setting. For part of these data: In cells and extracts the contact can be indirect. Some binding calls cover weakened binding; strength is not graded here. Where a sequence is shown, tags or fusion partners need not be part of it.

By UniProt entry, the sequences of proteins in these tests, tags left out.
UniProt P60468: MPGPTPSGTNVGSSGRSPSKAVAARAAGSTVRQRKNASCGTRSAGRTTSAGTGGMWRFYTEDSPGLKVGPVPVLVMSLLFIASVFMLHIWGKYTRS

How the values were obtained:
[1] = biological target: full length human Sec61β with a C-terminal 6xHis-tag (human) (UniProt P60468); assay: pull-down; co-expression in E. coli BL21 (DE3) of untagged ArsA protein (pET21) with C-terminally His-tagged TA protein (pET28); IMAC (Ni-NTA) co-purification from the soluble lysate, washes with 50 and 100 mM imidazole, elution with 250 mM imidazole, SDS-PAGE; bands confirmed by mass spectrometry for Cr-ArsA1/Cr-TOC34-NTC
[2] = biological target: T1, Cr-TOC34-NTC domain (NTC region of TOC34) with a C-terminal His-tag (C. reinhardtii); assay: as above
T1 sequence: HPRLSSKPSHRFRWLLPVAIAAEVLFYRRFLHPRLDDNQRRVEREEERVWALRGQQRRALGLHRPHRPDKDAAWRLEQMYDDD

[3] = biological target: Cr-ArsA1 (C. reinhardtii ArsA1), recombinant, purified after cleavage from GST (C. reinhardtii) (UniProt A8JGB0); assay: SEC; preparative size-exclusion chromatography of the purified protein, Superdex-200-16/600GL column; oligomeric state from peak positions; both purified

B1: Cr-ArsA2 (C. reinhardtii ArsA2), recombinant, purified (natural protein, UniProt A8IXB8 1-362, looked up)
chain: MAADMPDPTLQNVVDQKELKWIFVGGKGGVGKTTTSSSLAVALAESGTRNRVLIISTDPAHNLSDAFRQKFTKTPTLVNGFTNLFAMEVDPQPDIGEMEQLEWAQDSFLTELAGSIPGIDEAMSFAEVMKQVQTMDYDTIVFDTAPTGHTLRLLNFPTILEKGLSKLVALKGAMGGMMGQVTRMLGGMAGGGEGAADLPDQLLGKVEGMLDVVRKVSAQFKDPLLTTFVAVCIPEFLSLYETERLVQELAKFEIDCRNIVINQIIFPESVGGSRLLDARVRMQQKYLDQFYELYEDFHILQLPLLEEEVRGPEALKAFAVNLLKPYVPAPPTDAAARQAALVSEVAALKKRVAELEAALAKK
notes: ArsA2 of Chlamydomonas reinhardtii, full-length open reading frame, one ATPase domain; pET21 modified with a TEV site between the N-terminal 6His-tag and the polylinker; Seen as dimers and tetramers; also called Dimeric Cr-ArsA2; arsenite transporter ArsA2; source: E. coli BL21 (DE3), purified (Ni-NTA, size-exclusion chromatography)
[1]
  binding: binds

B2: native Cr-ArsA1, co-expressed without tag (protein, UniProt A8JGB0 1-777)
chain: MALASGNRLGSARGQTCADASGRVAPRLLSRACSGSPLALGVLACLGAASSVKPHPRLPATTSAASAPLPARGPAPCAAVPTVVTPDNATGVFEELAAGQQRKYIMISGKGGVGKTSLSASLAVKLAAAGHTTLVVSTDPAHSLSDSLAQDVSGGRPVLLQGTDLPLWGLEIDPEEAKREFFEGSGAGQDGEAGGPSAASQVSDFMNRMGMGFVIDQLKELKLGELLNTPPPGLDEAVAIAKVVQFVQAAEYARFSRIVFDTAPTGHTLRLLALPDFVDASLAKVIRLRKKLNGATSVVRGLFGAGESQDEAVEKLELLQQRVRMVKALFRDKTQTEFIIATIPTYLGVNESSRLLQALRAEQIPCKRIIVNQIVGPQQGDAYLRMKMKDQIAALEMVANDPGLRPLRKVIAPMVDVEVRGVPALSYFGNVVWKDVYDQMNQGADRKFFLLGGKGGVGKTSCSSSLAVHFANDGLPTLVVSTDPAHSLSDAFDQDLSGGSPVKITSPLGDELPLWGLQLDPEQAKAELRAVLADDGGKKLNETLDGLGLGVISDQLKDLQLGELLDTPPPGVDEAIAIAKVVQFLKAPEYSHFKRIVFDTAPTGHTLRLLSLPDFLDASIGKLVRLRQKLSAATSAVKNLFSGGQPGEEDVAVKRLEALQASMEDAKAMFRNQQTTEFIIVTIPTVMATAESCRLASALQHEGIPLKTIIVNQVVQANATDKFLTARRADQARALHHLEEDTGPDGLASLQLIKAPLCDLEVRGVPALSYFGNVVWK
[2]
  binding: binds

B3: Cr-ArsA1 (C. reinhardtii ArsA1), recombinant, purified after cleavage from GST (protein, UniProt A8JGB0 1-777)
chain: MALASGNRLGSARGQTCADASGRVAPRLLSRACSGSPLALGVLACLGAASSVKPHPRLPATTSAASAPLPARGPAPCAAVPTVVTPDNATGVFEELAAGQQRKYIMISGKGGVGKTSLSASLAVKLAAAGHTTLVVSTDPAHSLSDSLAQDVSGGRPVLLQGTDLPLWGLEIDPEEAKREFFEGSGAGQDGEAGGPSAASQVSDFMNRMGMGFVIDQLKELKLGELLNTPPPGLDEAVAIAKVVQFVQAAEYARFSRIVFDTAPTGHTLRLLALPDFVDASLAKVIRLRKKLNGATSVVRGLFGAGESQDEAVEKLELLQQRVRMVKALFRDKTQTEFIIATIPTYLGVNESSRLLQALRAEQIPCKRIIVNQIVGPQQGDAYLRMKMKDQIAALEMVANDPGLRPLRKVIAPMVDVEVRGVPALSYFGNVVWKDVYDQMNQGADRKFFLLGGKGGVGKTSCSSSLAVHFANDGLPTLVVSTDPAHSLSDAFDQDLSGGSPVKITSPLGDELPLWGLQLDPEQAKAELRAVLADDGGKKLNETLDGLGLGVISDQLKDLQLGELLDTPPPGVDEAIAIAKVVQFLKAPEYSHFKRIVFDTAPTGHTLRLLSLPDFLDASIGKLVRLRQKLSAATSAVKNLFSGGQPGEEDVAVKRLEALQASMEDAKAMFRNQQTTEFIIVTIPTVMATAESCRLASALQHEGIPLKTIIVNQVVQANATDKFLTARRADQARALHHLEEDTGPDGLASLQLIKAPLCDLEVRGVPALSYFGNVVWK
[3]
  binding: no binding
